According to the supplement of paper PMC7666118:
This is one part of the list.

Amino acid sequences for entries named in this document (tags omitted). A change or cut given only in a name is not applied to a line headed by its entry.
UniProt Q9H1K1: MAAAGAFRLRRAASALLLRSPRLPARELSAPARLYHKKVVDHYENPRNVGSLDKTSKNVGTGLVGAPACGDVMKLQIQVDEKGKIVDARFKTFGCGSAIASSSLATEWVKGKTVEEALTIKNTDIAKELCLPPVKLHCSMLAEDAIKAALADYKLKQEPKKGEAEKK
UniProt Q96AB3: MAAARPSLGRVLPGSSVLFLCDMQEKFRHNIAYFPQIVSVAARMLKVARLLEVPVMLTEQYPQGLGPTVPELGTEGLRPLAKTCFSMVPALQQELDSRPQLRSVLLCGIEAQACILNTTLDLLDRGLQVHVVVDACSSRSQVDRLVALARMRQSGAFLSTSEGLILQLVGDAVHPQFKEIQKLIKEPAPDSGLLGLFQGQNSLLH
UniProt Q9NX55: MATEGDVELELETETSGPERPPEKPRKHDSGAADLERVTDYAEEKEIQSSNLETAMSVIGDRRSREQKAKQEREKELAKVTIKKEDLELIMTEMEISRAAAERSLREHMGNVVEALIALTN
UniProt Q8TEX9: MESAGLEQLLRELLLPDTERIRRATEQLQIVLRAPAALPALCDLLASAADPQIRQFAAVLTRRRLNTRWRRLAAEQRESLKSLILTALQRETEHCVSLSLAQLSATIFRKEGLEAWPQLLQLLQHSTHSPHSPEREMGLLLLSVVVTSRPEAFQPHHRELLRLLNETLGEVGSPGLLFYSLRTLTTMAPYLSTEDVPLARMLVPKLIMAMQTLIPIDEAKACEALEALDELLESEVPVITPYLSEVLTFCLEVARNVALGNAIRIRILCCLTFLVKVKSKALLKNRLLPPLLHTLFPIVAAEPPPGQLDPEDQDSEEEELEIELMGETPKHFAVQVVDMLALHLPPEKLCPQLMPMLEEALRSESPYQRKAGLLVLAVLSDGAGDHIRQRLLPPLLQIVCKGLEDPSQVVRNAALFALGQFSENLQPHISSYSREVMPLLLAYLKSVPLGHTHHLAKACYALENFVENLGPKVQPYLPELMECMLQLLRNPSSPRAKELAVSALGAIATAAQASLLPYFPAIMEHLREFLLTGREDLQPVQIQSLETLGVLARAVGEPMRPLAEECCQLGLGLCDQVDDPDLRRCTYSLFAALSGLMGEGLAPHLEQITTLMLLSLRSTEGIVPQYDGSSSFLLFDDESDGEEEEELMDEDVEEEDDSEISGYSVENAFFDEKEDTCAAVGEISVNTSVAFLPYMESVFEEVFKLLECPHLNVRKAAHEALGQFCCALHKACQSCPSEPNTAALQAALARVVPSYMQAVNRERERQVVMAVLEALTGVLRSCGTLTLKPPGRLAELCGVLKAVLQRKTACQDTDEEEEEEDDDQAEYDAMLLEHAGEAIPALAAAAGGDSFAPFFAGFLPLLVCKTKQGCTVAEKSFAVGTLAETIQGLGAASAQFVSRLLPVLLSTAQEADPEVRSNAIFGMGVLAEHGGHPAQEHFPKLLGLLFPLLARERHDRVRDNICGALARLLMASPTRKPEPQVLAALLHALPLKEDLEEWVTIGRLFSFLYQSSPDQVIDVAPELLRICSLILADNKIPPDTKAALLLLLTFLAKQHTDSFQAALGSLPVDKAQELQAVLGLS
UniProt O75071: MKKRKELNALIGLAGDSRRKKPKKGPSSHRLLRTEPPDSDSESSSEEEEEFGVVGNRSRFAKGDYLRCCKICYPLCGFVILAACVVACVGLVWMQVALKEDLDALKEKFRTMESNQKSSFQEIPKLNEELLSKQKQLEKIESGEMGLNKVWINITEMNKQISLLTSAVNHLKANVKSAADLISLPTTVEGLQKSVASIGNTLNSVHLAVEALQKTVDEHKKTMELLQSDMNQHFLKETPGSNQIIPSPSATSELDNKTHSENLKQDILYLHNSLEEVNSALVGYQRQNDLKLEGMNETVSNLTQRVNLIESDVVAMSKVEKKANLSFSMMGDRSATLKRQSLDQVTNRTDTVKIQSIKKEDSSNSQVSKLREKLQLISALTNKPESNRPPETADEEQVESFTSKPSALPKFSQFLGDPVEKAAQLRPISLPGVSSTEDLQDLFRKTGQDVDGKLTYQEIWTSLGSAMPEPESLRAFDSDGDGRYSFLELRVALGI
UniProt Q9NVR2, whole entry: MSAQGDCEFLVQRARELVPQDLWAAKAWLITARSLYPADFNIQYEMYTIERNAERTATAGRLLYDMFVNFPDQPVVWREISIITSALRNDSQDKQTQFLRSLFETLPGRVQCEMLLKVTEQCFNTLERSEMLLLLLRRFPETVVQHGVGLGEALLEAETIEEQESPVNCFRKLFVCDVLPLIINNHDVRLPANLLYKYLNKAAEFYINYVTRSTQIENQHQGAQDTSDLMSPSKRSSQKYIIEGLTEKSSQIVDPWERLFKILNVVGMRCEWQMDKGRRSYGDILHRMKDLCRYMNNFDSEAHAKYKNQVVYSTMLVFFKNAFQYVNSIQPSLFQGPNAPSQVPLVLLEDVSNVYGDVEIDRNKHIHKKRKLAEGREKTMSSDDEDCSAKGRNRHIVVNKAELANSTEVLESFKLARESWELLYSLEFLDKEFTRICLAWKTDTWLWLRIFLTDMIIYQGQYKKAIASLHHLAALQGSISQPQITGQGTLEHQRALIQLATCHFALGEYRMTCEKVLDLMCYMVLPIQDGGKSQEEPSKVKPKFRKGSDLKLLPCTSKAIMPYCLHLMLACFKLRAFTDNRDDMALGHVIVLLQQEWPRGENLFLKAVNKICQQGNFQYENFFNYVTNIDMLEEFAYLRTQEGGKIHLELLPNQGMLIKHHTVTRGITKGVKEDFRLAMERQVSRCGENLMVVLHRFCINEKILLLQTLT
UniProt Q9UK53: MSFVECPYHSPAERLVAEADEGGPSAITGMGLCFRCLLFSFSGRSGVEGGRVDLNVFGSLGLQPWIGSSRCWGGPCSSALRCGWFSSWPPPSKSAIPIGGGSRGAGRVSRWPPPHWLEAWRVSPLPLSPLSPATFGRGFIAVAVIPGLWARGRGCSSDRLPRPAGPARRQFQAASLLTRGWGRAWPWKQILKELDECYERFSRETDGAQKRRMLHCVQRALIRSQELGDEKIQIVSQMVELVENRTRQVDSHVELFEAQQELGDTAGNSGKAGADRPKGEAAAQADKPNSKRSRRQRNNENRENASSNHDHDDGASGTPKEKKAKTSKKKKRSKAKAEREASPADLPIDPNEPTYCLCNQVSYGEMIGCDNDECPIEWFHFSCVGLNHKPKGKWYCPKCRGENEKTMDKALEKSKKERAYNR
UniProt Q58WW2: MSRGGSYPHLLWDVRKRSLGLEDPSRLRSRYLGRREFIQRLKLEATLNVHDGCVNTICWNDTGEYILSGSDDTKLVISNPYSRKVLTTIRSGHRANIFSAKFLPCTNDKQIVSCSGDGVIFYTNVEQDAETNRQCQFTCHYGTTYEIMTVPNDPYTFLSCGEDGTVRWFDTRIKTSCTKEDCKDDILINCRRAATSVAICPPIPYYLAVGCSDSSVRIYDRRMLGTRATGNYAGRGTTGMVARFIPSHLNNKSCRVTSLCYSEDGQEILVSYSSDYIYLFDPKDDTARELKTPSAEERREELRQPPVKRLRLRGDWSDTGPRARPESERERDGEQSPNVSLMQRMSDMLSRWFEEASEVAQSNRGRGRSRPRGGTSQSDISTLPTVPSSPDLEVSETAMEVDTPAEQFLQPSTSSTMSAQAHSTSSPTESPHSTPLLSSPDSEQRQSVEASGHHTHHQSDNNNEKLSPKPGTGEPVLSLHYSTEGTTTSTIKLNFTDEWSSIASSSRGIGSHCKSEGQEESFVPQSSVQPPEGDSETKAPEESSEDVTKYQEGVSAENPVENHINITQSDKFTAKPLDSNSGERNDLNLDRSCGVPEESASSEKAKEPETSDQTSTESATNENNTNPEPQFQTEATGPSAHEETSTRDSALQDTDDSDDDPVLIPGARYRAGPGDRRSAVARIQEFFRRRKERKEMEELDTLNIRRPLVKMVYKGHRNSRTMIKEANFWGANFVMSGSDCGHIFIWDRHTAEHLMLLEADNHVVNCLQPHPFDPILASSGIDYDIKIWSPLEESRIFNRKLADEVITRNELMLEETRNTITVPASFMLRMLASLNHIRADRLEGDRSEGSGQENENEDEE
UniProt A2RU67: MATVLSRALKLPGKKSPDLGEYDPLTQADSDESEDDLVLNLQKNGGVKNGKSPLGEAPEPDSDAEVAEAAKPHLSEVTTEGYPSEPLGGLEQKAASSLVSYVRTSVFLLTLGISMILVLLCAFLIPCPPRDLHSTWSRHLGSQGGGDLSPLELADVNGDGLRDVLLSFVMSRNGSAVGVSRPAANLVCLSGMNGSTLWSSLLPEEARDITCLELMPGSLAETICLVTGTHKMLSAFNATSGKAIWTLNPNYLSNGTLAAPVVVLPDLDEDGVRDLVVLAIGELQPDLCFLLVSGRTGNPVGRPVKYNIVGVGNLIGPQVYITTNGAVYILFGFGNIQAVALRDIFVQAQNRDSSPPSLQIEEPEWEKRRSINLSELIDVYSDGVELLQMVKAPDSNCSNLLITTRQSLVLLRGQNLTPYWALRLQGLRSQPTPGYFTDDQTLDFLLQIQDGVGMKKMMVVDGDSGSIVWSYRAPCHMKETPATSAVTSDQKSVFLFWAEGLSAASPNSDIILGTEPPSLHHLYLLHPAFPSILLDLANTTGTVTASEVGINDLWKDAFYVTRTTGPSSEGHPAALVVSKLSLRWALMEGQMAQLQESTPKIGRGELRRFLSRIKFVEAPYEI
UniProt P48200: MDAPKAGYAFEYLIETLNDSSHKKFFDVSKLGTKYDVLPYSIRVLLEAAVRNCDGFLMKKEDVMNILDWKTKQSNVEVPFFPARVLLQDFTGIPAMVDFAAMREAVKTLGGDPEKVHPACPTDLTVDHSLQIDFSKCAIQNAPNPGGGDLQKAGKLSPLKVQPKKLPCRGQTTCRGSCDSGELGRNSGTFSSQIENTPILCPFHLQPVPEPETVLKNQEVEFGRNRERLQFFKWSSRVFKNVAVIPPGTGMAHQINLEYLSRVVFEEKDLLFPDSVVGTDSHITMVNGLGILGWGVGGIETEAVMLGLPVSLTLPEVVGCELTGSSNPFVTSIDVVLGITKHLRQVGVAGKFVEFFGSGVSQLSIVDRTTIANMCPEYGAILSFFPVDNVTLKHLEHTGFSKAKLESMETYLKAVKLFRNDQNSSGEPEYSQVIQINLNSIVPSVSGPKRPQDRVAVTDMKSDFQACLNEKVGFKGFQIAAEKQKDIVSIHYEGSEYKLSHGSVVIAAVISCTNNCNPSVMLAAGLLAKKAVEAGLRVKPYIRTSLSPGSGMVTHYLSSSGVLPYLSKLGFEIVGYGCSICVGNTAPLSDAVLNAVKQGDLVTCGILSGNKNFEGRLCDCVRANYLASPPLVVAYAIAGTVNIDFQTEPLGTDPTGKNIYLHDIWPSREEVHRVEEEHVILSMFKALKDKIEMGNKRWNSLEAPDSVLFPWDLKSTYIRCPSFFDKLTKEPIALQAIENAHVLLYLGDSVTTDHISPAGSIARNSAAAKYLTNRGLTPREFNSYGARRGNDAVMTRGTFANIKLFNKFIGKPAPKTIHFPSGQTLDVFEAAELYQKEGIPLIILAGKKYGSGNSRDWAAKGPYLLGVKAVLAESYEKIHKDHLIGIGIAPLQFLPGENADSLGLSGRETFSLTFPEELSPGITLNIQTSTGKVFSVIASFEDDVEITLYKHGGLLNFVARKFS
UniProt P20839, whole entry, looked up: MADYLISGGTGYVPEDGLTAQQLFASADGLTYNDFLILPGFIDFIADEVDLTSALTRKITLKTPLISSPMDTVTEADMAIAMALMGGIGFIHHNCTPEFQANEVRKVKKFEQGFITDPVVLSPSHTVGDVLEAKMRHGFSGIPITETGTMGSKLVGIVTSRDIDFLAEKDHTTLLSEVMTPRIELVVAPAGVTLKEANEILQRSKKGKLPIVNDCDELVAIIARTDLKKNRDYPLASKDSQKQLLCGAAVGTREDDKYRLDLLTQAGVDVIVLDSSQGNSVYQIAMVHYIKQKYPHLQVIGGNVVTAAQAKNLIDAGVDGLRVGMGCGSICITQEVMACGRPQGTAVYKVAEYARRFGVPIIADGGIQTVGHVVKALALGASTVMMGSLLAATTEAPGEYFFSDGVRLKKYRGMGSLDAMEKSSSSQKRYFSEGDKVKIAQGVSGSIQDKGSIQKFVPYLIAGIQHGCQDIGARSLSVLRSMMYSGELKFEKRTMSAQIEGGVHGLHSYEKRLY
UniProt P17535: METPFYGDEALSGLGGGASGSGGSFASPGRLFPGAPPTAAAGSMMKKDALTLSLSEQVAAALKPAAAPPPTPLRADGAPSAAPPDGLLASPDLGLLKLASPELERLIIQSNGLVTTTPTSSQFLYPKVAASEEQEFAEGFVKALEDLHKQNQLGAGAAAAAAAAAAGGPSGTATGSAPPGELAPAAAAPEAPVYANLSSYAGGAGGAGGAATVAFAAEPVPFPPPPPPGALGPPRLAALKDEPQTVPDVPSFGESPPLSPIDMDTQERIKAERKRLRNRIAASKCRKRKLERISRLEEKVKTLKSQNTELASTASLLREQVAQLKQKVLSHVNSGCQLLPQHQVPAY

compound: COc1ccc(Cn2ccc3cc(C)c(C(=O)NO)cc32)cc1; assay: dose-dependent thermal stabilisation call (2D-TPP, DLPTP, 10% FDR) (binary (1 = stabilised)); higher = stabilised by the compound; conditions: system: HL-60 intact cells; concentration range 0.04-10 µM
Procedure: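 2D thermal proteome profiling in intact HL-60 cells treated with BRD-3811 (0, 0.04, 0.29, 2, 10 uM) for 90 min at 37 C, then heated 3 min at one of 12 temperatures (42-63.9 C). Soluble protein was quantified by TMT10 MS. The value is the DLPTP call of the paper: dose-dependent thermal stabilisation over all temperatures at 10% FDR (F-test of a dose-response against a flat model); one experiment, one call per tested protein.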

Row | Target | dose-dependent thermal stabilisation call
1 | KIAA1429 (UniProt Q69YN4) | inactive: 0
2 | ISCU (UniProt Q9H1K1) | inactive: 0
3 | ISOC2 (UniProt Q96AB3) | inactive: 0
4 | HYPK (UniProt Q9NX55) | inactive: 0
5 | IPO4 (UniProt Q8TEX9) | inactive: 0
6 | KIAA0494 (UniProt O75071) | inactive: 0
7 | ITGA5 (UniProt P08648) | inactive: 0
8 | KCTD12 (UniProt Q96CX2) | inactive: 0
9 | IFI35 (UniProt P80217) | inactive: 0
10 | KIAA0776 (UniProt O94874) | inactive: 0
11 | KIAA1524 (UniProt Q8TCG1) | inactive: 0
12 | KLHL20 (UniProt Q9Y2M5) | inactive: 0
13 | INTS10 (UniProt Q9NVR2) | inactive: 0
14 | ING1 (UniProt Q9UK53) | inactive: 0
15 | IQWD1 (UniProt Q58WW2) | inactive: 0
16 | KCNAB2 (UniProt Q13303) | inactive: 0
17 | KIAA1467 (UniProt A2RU67) | inactive: 0
18 | IGLL1 (UniProt P15814) | inactive: 0
19 | KHK (UniProt P50053) | inactive: 0
20 | KIAA0195 (UniProt Q12767) | inactive: 0

Looked up above:
Value of ING1 (UniProt Q9UK53) under dose-dependent thermal stabilisation call: inactive: 0
Value of KIAA0195 (UniProt Q12767) under dose-dependent thermal stabilisation call: inactive: 0
Value of KCTD12 (UniProt Q96CX2) under dose-dependent thermal stabilisation call: inactive: 0

(further entries)

Row | Target | dose-dependent thermal stabilisation call
21 | KIF20B (UniProt Q96Q89) | inactive: 0
22 | IMPDH2 (UniProt P12268) | inactive: 0
23 | IFT140 (UniProt Q96RY7) | inactive: 0
24 | ITPA (UniProt Q9BY32) | inactive: 0
25 | JUNB (UniProt P17275) | inactive: 0
26 | KIFC1 (UniProt Q9BW19) | inactive: 0
27 | KIF11 (UniProt P52732) | inactive: 0
28 | IL2RG (UniProt P31785) | inactive: 0
29 | IARS (UniProt P41252) | inactive: 0
30 | INTS6 (UniProt Q9UL03) | inactive: 0
31 | KLRAQ1 (UniProt Q6ZMI0) | inactive: 0
32 | IREB2 (UniProt P48200) | inactive: 0
33 | KPNB1 (UniProt Q14974) | inactive: 0
34 | KIF21B (UniProt O75037) | inactive: 0
35 | KIAA0100 (UniProt Q14667) | inactive: 0
36 | ICAM1 (UniProt P05362) | inactive: 0
37 | KIF1B (UniProt O60333) | inactive: 0
38 | KIF14 (UniProt Q15058) | inactive: 0
39 | IMPDH1 (UniProt P20839) | inactive: 0
40 | JUND (UniProt P17535) | inactive: 0
